Source: article PMC5930436, “Overexpressed HDAC8 in cervical cancer cells shows functional redundancy of tubulin deacetylation with HDAC6” (Cell Communication and Signaling : CCS, 2018)

Protein sequences, listed by entry. Tags and fused reporters are not part of them.
UniProt Q9BQE3: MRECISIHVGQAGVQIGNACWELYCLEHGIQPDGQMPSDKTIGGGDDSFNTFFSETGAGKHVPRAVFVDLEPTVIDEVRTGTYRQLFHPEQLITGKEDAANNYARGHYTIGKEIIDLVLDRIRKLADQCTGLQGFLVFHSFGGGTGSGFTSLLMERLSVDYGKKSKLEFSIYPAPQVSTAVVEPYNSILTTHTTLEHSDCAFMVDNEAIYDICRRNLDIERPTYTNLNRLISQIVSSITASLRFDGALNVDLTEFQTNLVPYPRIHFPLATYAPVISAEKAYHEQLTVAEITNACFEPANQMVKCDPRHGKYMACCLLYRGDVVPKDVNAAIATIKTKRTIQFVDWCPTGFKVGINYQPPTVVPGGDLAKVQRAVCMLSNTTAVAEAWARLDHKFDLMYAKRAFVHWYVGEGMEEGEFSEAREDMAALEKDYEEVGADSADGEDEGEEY

Biological target: T1, HDAC8 (human (endogenous in HeLa and HEK 293 T)) (UniProt Q9BY41)
T1 sequence: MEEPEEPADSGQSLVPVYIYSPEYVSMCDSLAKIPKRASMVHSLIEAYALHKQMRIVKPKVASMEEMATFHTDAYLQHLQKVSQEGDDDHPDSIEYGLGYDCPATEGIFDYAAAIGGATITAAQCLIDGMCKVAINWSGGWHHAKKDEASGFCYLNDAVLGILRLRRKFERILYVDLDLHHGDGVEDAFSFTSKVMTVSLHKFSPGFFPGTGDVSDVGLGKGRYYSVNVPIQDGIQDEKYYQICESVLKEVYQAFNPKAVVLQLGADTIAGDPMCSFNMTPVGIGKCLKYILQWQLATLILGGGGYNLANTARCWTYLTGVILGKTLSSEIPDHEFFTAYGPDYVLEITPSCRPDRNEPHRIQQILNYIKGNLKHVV
Assay: affinity purification with mass spectrometry; HeLa lysate (approx. 500 μg total protein) with 2 μg anti-HDAC8 antibody overnight at 4 °C, Protein A beads; 10% SDS-PAGE, Coomassie; band excised, MALDI TOF-TOF, Mascot search

How did the binding turn out when “Alpha tubulin (TUBA1-C, Human Alpha Tubulin chain 1 C isoform) (from UniProt Q9BQE3 1-449)” was run?
The binding was “binds”.

No constants are given. Whether binding was seen depends on the method and setting. In cells and extracts the contact can be indirect. Here binding means that the protein was enriched with, or labelled near, the bait; the list need not be complete.
